Laboratory results from patent US7011833.
These are yes or no findings as the source states them, for the method shown. Some binding calls cover weakened binding; strength is not graded here.

By UniProt entry, the sequences of proteins in these tests, tags left out. Where a name states a change or a piece, a line headed by the entry shows the natural chain unless it says otherwise. Residues count along the entry.
UniProt P09793, residues 36-161: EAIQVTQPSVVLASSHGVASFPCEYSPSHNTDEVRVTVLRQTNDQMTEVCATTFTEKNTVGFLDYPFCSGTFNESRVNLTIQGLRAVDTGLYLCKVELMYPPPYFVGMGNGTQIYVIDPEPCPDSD
UniProt P42082: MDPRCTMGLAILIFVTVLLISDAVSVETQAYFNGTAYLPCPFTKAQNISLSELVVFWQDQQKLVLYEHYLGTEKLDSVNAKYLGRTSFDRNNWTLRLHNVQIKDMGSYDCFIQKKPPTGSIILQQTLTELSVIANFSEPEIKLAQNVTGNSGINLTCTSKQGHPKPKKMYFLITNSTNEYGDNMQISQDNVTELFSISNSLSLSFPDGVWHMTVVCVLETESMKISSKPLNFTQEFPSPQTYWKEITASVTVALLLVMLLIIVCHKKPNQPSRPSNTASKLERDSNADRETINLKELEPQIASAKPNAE

What was measured:
murine CD28 (murine) = molecular target: T1, murine CD28 (murine) (UniProt P31041); assay: FACS or Biacore (not told which for which pair)
T1 sequence (looked up): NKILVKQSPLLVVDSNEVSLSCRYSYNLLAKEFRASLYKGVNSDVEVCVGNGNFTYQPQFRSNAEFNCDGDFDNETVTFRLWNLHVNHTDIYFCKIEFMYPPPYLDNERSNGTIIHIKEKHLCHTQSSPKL

murine CTLA-4 (murine) = murine CTLA-4 (murine) (UniProt P09793); assay: FACS or Biacore (not told which for which pair)

For “murine B7-2-IgG2a fusion protein (from UniProt P42082 24-244; P01863 98-330) (Fc fusion)”, the binding (murine CD28 (murine)) was “binds” and the binding (murine CTLA-4 (murine)) was “binds”.
